The list shows only some results of the screen, not a fair sample: it gathers some chemical classes. Other doses and runs of a compound may be missing. T/C gives the treated animals as a percentage of the vehicle group. For survival time, this PubChem deposit counts one and a half times the control or more as active, and values a quarter to a half above the control carry no call in these data; other NCI protocols may use other cut-offs. Schedules are NCI's codes, taken here to give the interval after Q, in days (D) or hours (H), and the number of doses after X.
Test system: B6C3F1 mice, ip Sarcoma M5076, median survival T/C
Assay: NCI In Vivo Anticancer Drug Screen. Data for tumor model Sarcoma M5076 (intraperitoneal) in B6C3F1 mice
Settings: T/C endpoint: median survival time, schedule: Q04DX004 (ip), vehicle: saline, higher T/C = longer survival
Description: The antitumor activity of compounds was measured in mice bearing transplantable tumors. Survival or tumor size were measured and the results are expressed as the measurement made in the treated group (T) divided by the measurement made in the vehicle treated control group (C). The tumor model used in this assay is Sarcoma M5076 (intraperitoneal) in B6C3F1 mice

In the case of `CN(CCCl)CCCl`, the T/C (dose: 0.31 mg/kg/injection) is reported as 133 % of control, the T/C (dose: 0.62 mg/kg/injection) is reported as 163 % of control and the T/C (dose: 1.25 mg/kg/injection) is reported as 184 % of control.

— PubChem BioAssay AID292 (DTP/NCI, 2004)
